From paper PMC3178557 come the findings set out here.

Protein sequences, listed by entry. Tags and fused reporters are not part of them.
UniProt P31941: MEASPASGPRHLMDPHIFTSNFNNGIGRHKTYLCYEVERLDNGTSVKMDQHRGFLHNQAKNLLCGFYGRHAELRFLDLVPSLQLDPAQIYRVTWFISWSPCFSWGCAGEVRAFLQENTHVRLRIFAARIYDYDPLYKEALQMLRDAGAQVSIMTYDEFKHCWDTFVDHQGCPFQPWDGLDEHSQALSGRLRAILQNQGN

Results are given in words; binding and its absence hold for the method and conditions named. In cells and extracts the contact can be indirect. Some entries that bind do so weakly or less than the wild type. Where a sequence is shown, tags or fusion partners need not be part of it.

The target in the test is T1, Flag-tagged HIV-2ROD Vpx (HIV-2ROD) (UniProt P06939).
T1 sequence: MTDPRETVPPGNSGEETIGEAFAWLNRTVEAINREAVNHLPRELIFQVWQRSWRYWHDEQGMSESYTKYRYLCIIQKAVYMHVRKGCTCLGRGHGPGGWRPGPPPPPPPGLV
The test is described as follows: co-IP; HEK293T co-transfected 1:1 with Flag-tagged Vpx/Vpr and HA-tagged A3A; lysed in 150 mM NaCl buffer, anti-Flag antibody-coated beads 3 hours at +4°C, washed thrice with 400 mM NaCl buffer; WB.

As for “HA-tagged APOBEC3A (from UniProt P31941 1-199)”, the binding result is recorded as “binds”.
